In publication PMC5994830:
No constants are given. Whether binding was seen depends on the method and setting. Binding seen in cells or lysates may run through a third protein. Some entries that bind do so weakly or less than the wild type. Tags and fused reporters may be left off the sequences shown.

Amino acid sequences for entries named in this document (tags omitted).
UniProt P35569: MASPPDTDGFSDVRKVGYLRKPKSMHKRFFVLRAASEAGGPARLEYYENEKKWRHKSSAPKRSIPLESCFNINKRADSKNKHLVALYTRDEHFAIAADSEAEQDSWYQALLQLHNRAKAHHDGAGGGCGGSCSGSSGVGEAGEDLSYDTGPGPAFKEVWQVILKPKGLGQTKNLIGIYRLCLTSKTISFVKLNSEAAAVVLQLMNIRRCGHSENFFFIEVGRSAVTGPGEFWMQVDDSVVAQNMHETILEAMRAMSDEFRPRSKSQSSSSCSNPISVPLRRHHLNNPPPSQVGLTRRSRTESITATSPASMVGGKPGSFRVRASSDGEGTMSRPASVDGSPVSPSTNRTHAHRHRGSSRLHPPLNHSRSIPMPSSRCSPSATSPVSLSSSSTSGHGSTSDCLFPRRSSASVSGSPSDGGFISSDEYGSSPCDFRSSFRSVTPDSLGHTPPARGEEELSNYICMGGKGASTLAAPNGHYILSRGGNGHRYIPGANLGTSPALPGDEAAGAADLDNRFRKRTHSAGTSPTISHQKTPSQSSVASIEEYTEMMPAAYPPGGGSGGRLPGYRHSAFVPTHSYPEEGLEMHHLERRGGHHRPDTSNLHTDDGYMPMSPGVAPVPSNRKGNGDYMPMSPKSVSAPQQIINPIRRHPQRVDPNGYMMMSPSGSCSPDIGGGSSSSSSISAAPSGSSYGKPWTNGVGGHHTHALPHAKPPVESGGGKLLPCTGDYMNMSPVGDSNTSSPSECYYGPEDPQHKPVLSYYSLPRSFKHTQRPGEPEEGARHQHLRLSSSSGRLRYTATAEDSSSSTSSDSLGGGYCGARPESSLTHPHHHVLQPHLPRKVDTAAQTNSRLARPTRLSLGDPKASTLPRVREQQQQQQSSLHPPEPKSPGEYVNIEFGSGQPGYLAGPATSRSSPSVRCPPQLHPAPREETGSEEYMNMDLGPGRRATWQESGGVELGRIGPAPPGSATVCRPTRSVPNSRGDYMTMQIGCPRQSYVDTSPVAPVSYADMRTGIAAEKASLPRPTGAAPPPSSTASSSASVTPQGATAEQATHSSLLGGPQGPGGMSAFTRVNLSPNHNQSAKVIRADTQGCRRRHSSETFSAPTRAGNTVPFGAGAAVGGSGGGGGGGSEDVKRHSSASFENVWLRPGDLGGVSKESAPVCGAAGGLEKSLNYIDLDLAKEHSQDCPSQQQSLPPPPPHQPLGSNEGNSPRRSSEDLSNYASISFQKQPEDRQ

B1: C-terminal luciferase fused with MG53 C14A (CLUC-C14A) (enzyme, UniProt Q1XH17 1-477)
chain: MSAAPGLLRQELSAPLCLQLFDAPVTAECGHSFCRACLIRVAGEPAADGTVACPCCQAPTRPQALSTNLQLSRLVEGLAQVPQGHCEEHLDPLSIYCEQDRTLVCGVCASLGSHRGHRLLPAAEAQARLKTQLPQQKMQLQEACMRKEKTVAVLEHQLVEVEETVRQFRGAVGEQLGKMRMFLAALESSLDREAERVRGDAGVALRRELSSLNSYLEQLRQMEKVLEEVADKPQTEFLMKFCLVTSRLQKILSESPPPARLDIQLPVISDDFKFQVWKKMFRALMPALEELTFDPSSAHPSLVVSSSGRRVECSDQKAPPAGEDTRQFDKAVAVVAQQLLSQGEHYWEVEVGDKPRWALGVMAADASRRGRLHAVPSQGLWLLGLRDGKILEAHVEAKEPRALRTPERPPARIGLYLSFADGVLAFYDASNPDVLTPIFSFHERLPGPVYPIFDVCWHDKGKNAQPLLLVGPEQEQA
B2: HA-MG53 C14A (enzyme, UniProt Q1XH17 1-477)
chain: MSAAPGLLRQELSAPLCLQLFDAPVTAECGHSFCRACLIRVAGEPAADGTVACPCCQAPTRPQALSTNLQLSRLVEGLAQVPQGHCEEHLDPLSIYCEQDRTLVCGVCASLGSHRGHRLLPAAEAQARLKTQLPQQKMQLQEACMRKEKTVAVLEHQLVEVEETVRQFRGAVGEQLGKMRMFLAALESSLDREAERVRGDAGVALRRELSSLNSYLEQLRQMEKVLEEVADKPQTEFLMKFCLVTSRLQKILSESPPPARLDIQLPVISDDFKFQVWKKMFRALMPALEELTFDPSSAHPSLVVSSSGRRVECSDQKAPPAGEDTRQFDKAVAVVAQQLLSQGEHYWEVEVGDKPRWALGVMAADASRRGRLHAVPSQGLWLLGLRDGKILEAHVEAKEPRALRTPERPPARIGLYLSFADGVLAFYDASNPDVLTPIFSFHERLPGPVYPIFDVCWHDKGKNAQPLLLVGPEQEQA
B3: HA-MG53 (enzyme, UniProt Q1XH17 1-477)
chain: MSAAPGLLRQELSCPLCLQLFDAPVTAECGHSFCRACLIRVAGEPAADGTVACPCCQAPTRPQALSTNLQLSRLVEGLAQVPQGHCEEHLDPLSIYCEQDRTLVCGVCASLGSHRGHRLLPAAEAQARLKTQLPQQKMQLQEACMRKEKTVAVLEHQLVEVEETVRQFRGAVGEQLGKMRMFLAALESSLDREAERVRGDAGVALRRELSSLNSYLEQLRQMEKVLEEVADKPQTEFLMKFCLVTSRLQKILSESPPPARLDIQLPVISDDFKFQVWKKMFRALMPALEELTFDPSSAHPSLVVSSSGRRVECSDQKAPPAGEDTRQFDKAVAVVAQQLLSQGEHYWEVEVGDKPRWALGVMAADASRRGRLHAVPSQGLWLLGLRDGKILEAHVEAKEPRALRTPERPPARIGLYLSFADGVLAFYDASNPDVLTPIFSFHERLPGPVYPIFDVCWHDKGKNAQPLLLVGPEQEQA

Key:
[1] = molecular target: N-terminal luciferase fused with IRS-1 (NLUC-IRS-1) (UniProt P35569); experiment: split reporter; lysate-based bimolecular luminescence complementation (BiLC): lysates of the stable HEK 293 line incubated with MID chemicals for 1 h; luminescence read with Steady-Glow Luciferase assay kit
[2] = molecular target: N-terminal luciferase fused with IRS-1 (NLUC-IRS-1) (UniProt P35569); experiment: split reporter; cell-based BiLC: stable HEK 293 cells incubated with MID chemicals for 24 h, then lysed; luminescence read with Steady-Glow Luciferase assay kit
Flag-IRS-1 [3] = molecular target: Flag-IRS-1 (UniProt P35569); experiment: co-IP; as a3, but cells treated with MID-00935 (10 μM) for 12 h; wild-type HA-MG53 in the presence of MG132 (2.5 μM)
Flag-IRS-1 [4] = molecular target: Flag-IRS-1 (UniProt P35569); experiment: co-IP; reciprocal co-immunoprecipitation from transfected HEK 293 cells without MID-00935; IP lysis buffer (20 mM Tris-HCl pH 7.5, 150 mM NaCl, 1% Nonidet P-40, 5% glycerol, 1 mM EDTA), 500 μg protein, antibody 24 h at 4°C; wild-type HA-MG53 in the presence of MG132 (2.5 μM)

Binder	binding [1]	binding [2]	binding (Flag-IRS-1 [3])	binding (Flag-IRS-1 [4])
B1	binds	binds	–	–
B2	–	–	no binding (condition: with MID-00935 (10 μM))	binds
B3	–	–	no binding (condition: with MID-00935 (10 μM))	binds
